According to patent US11986463B2, “Combination therapy for the treatment of gastrointestinal stromal tumor” (Deciphera Pharmaceuticals, LLC, priority 2018, dated 2024):
For part of these data: For at least one compound, name, drawing or mass did not settle the structure. Some of these results come from one statement about several compounds together.

Key:
[1] = system: GIST-T1/T670I imatinib resistant cells; test: Colony outgrowth assay, GIST-T1/T670I; type: cell-based; conditions: single agents: imatinib 500 nM, Compound A 250 nM or 500 nM (FIG. 8D)
Source text: (§1) The outgrown cell colonies were stained with crystal violet and counted.

[2] = system: GIST-T1/D816E imatinib resistant cells; test: Colony outgrowth assay, GIST-T1/D816E; type: cell-based; conditions: single agents: imatinib 500 nM
Source text: as §1

[3] = system: GIST-T1 (57 bp exon 11 deletion) imatinib sensitive cells; test: Colony outgrowth assay, GIST-T1; type: cell-based
Source text: as §1

[4] = system: GIST T1 xenograft; test: GIST T1 xenograft model; type: in vivo, mice; conditions: trametinib orally 0.5 mg/kg BID, days 10-27
Method: The GIST T1 xenograft model was performed in compliance with all the laws, regulations and guidelines of the National Institutes of Health (NIH) and with the approval of the Animal Care and Use Committee of MI Bioresearch (Ann Arbor, MI), an AAALAC accredited facility. All mice had food and water ad libitum. […] Female Envigo nude mice (HsdCrl:Athymic Nude-NU-Foxn1nu; 6-7 weeks old) were inoculated subcutaneously just below the right high axilla with five million cells in Dulbecco's Phosphate Buffered Saline mixed with an equal volume of Matrigel, using a 27 gauge needle and syringe. When tumor burdens reached 117 mm^3 on average on day 10, mice were randomly assigned into groups such that the mean tumor burden for all groups was within 10% of the overall mean tumor burden for the study population. […] On Day 27, all animals were placed on control diet to monitor tumor regrowth. Tumor volume and body weight were measured thrice weekly. Tumor burden (mg) was estimated from caliper measurements by the formula: tumor burden (mg=mm^3)=(length×width^2)/2.

[5] = Compound A 100 nM or 250 nM (FIG. 8B)
[6] = Compound A 100 nM or 250 nM (FIG. 10B)
[7] = Compound A 100 nM or 250 nM (FIG. 12B)
[8] = single agents, 2 weeks, 9 day recovery (FIG. 8A)

Compound	GIST T1/T670I colony outgrowth [1]	GIST T1/D816E colony outgrowth [2, 5]	GIST T1/D816E colony outgrowth [2, 6]	GIST T1/D816E colony outgrowth [2, 7]	GIST T1 colony outgrowth ([3]; single agents (FIG. 10A))	GIST T1 colony outgrowth ([3]; single agents (FIG. 12A))	GIST T1 colony outgrowth [3, 8]	tumor growth compared to vehicle control [4]
CCn1c(=O)c(-c2cc(NC(=O)Nc3ccccc3)c(F)cc2Br)cc2cnc(NC)cc21 [Compound A, 1-[4-bromo-5-[1-ethyl-7-(methylamino)-2-oxo-1,2-dihydro-1,6-naphthyridin-3-yl]-2-fluorophenyl]-3-phenylurea]	44-49 % of vehicle control	61-72 % of vehicle control	60-95 % of vehicle control	65-74 % of vehicle control	36-41 % of vehicle control	18-23 % of vehicle control	23-30 % of vehicle control	
Cc1ccc(NC(=O)c2ccc(CN3CCN(C)CC3)cc2)cc1Nc1nccc(-c2cccnc2)n1 [imatinib, reference compound]	44-49 % of vehicle control	61-72 % of vehicle control	60-95 % of vehicle control	65-74 % of vehicle control	36-41 % of vehicle control	18-23 % of vehicle control	23-30 % of vehicle control	
CC(=O)Nc1cccc(-n2c(=O)n(C3CC3)c(=O)c3c(Nc4ccc(I)cc4F)n(C)c(=O)c(C)c32)c1 [trametinib, reference compound]								slight tumor growth inhibition
